Laboratory results as given in the supplement of paper PMC7877785.
± gives the uncertainty stated by the source. Many of these values have a large error.

Assay: self-splicing fitness, log relative to wild type (ln ratio); higher = more splicing; Tetrahymena group I intron in knt gene, E. coli kanamycin selection, DiMSum; sequences stand for … in CUCUCU…GGAGGGAAAAGUUAUCAGGCAUGCACCUGGUAGCUAGUCUUUAAACCAAUAGAUUGCAUCGGUUUAAAAGGCAAGACCGUCAAAUUGCGGGAAAGGGGUCAACAGCCGUUCAGUACCAAGUCUCAGGGGAAACUUUGAGAUGGCCUUGCAAAGGGUAUGGUAAUAAGCUGACGGACAUGGUCCUAACCACGCAGCCAAGUCCUAAGUCAACAGAUCUUCUGUUGAUAUGGAUGCAGUUCACAGACUAAAUGUCGGUCGGGGAAGAUGUAUUCUUCUCAUAAGAUAUAGUCGGACCUCUCCUUAAUGGGAGCUAGCGGAUGAAGUGAUGCAACACUGGAGCCGCUGGGAACUAAUUUGUAUGCGAAAGUAUAUUGAUUAGUUUUGGAGUACUCGUGGUCG
In short: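 Library with all eight P1ex-region intron nucleotides randomised, intron inside the knt kanamycin-resistance gene on pET-22b(+), in E. coli BL21(DE3). Cells grew overnight at 37°C or 30°C on LB agar with or without 25 μg/mL kanamycin (plus 100 μg/mL carbenicillin, 50 μM IPTG, 0.2% rhamnose), in six replicate transformations. Pooled colonies were amplicon-sequenced on Illumina HiSeq 2500. DiMSum fitness is the error-weighted combination of wild-type-normalised replicate fold changes, kanamycin versus none.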

CGAGAGCAAUAUUACGAUUA
self-splicing fitness (ln) (30 °C): -3.17 ± 1 | self-splicing fitness (ln) (37 °C): -2.31 ± 0.64

CCCGAGCAAUAUUACGGCAC
self-splicing fitness (ln) (30 °C): -4.47 ± 0.51

CUGAAGCAAUAUUACGCAUC
self-splicing fitness (ln) (37 °C): -2.5 ± 0.55

AGAGAGCAAUAUUACGCUAU
self-splicing fitness (ln) (30 °C): -3.66 ± 0.6 | self-splicing fitness (ln) (37 °C): -2.17 ± 0.63

GAUGAGCAAUAUUACGCUAU
self-splicing fitness (ln) (37 °C): -1.11 ± 0.73

UCGGAGCAAUAUUACGAAGC
self-splicing fitness (ln) (30 °C): -2.33 ± 0.55

UGGUAGCAAUAUUACGUACU
self-splicing fitness (ln) (37 °C): -0.977 ± 0.68

GCGGAGCAAUAUUACGCACG
self-splicing fitness (ln) (30 °C): -4.08 ± 0.73 | self-splicing fitness (ln) (37 °C): -3.48 ± 0.73

AGCGAGCAAUAUUACGUAAG
self-splicing fitness (ln) (30 °C): -3.4 ± 0.53

CGAUAGCAAUAUUACGUACC
self-splicing fitness (ln) (30 °C): -2.95 ± 1.1

CAGUAGCAAUAUUACGCGCC
self-splicing fitness (ln) (30 °C): -2.48 ± 1.1 | self-splicing fitness (ln) (37 °C): -1.13 ± 0.87

GUAUAGCAAUAUUACGUAGA
self-splicing fitness (ln) (30 °C): -3.2 ± 0.76

CUACAGCAAUAUUACGAAUC
self-splicing fitness (ln) (30 °C): -4.32 ± 0.23 | self-splicing fitness (ln) (37 °C): -2.61 ± 0.23

ACGGAGCAAUAUUACGUACC
self-splicing fitness (ln) (30 °C): -4.72 ± 1 | self-splicing fitness (ln) (37 °C): -0.522 ± 0.72

UCGCAGCAAUAUUACGUCUG
self-splicing fitness (ln) (30 °C): -4.75 ± 0.51

UGAUAGCAAUAUUACGUUCC
self-splicing fitness (ln) (30 °C): -1.67 ± 0.24 | self-splicing fitness (ln) (37 °C): -1.1 ± 0.4

AGCGAGCAAUAUUACGGAUU
self-splicing fitness (ln) (30 °C): -3.13 ± 0.61

UGAUAGCAAUAUUACGAGAA
self-splicing fitness (ln) (30 °C): -1.31 ± 0.67 | self-splicing fitness (ln) (37 °C): -2.29 ± 0.65

GGUGAGCAAUAUUACGCAGC
self-splicing fitness (ln) (30 °C): -2.97 ± 0.54

UCGGAGCAAUAUUACGAUCU
self-splicing fitness (ln) (30 °C): -1.99 ± 0.51 | self-splicing fitness (ln) (37 °C): -1.6 ± 0.53

UAUGAGCAAUAUUACGGAAA
self-splicing fitness (ln) (37 °C): -2.78 ± 0.54

GUUGAGCAAUAUUACGUACC
self-splicing fitness (ln) (37 °C): -1.52 ± 0.61

CGAGAGCAAUAUUACGUAUU
self-splicing fitness (ln) (30 °C): -2.53 ± 0.28 | self-splicing fitness (ln) (37 °C): -1.4 ± 0.28

AAGAAGCAAUAUUACGAUUG
self-splicing fitness (ln) (30 °C): -2.85 ± 0.26 | self-splicing fitness (ln) (37 °C): -1.78 ± 0.19

UAAUAGCAAUAUUACGACAA
self-splicing fitness (ln) (30 °C): -2.23 ± 0.16 | self-splicing fitness (ln) (37 °C): -1.01 ± 0.14

UGUUAGCAAUAUUACGAUCG
self-splicing fitness (ln) (30 °C): -0.427 ± 0.26 | self-splicing fitness (ln) (37 °C): -0.0339 ± 0.28

CAGGAGCAAUAUUACGACUG
self-splicing fitness (ln) (30 °C): -4.84 ± 0.51

CCUUAGCAAUAUUACGCACG
self-splicing fitness (ln) (37 °C): -0.935 ± 0.77

UGCGAGCAAUAUUACGCCGC
self-splicing fitness (ln) (30 °C): -3.34 ± 0.36 | self-splicing fitness (ln) (37 °C): -1.3 ± 0.43

GGUGAGCAAUAUUACGCGUC
self-splicing fitness (ln) (37 °C): -2.3 ± 1.1

GUCCAGCAAUAUUACGUUGA
self-splicing fitness (ln) (30 °C): -0.801 ± 0.057 | self-splicing fitness (ln) (37 °C): -0.239 ± 0.071

ACAGAGCAAUAUUACGCAGC
self-splicing fitness (ln) (30 °C): -4.66 ± 0.72

CGGCAGCAAUAUUACGGGAU
self-splicing fitness (ln) (30 °C): -3.24 ± 0.18 | self-splicing fitness (ln) (37 °C): -2.38 ± 0.23

UCUAAGCAAUAUUACGAAUA
self-splicing fitness (ln) (30 °C): -3 ± 0.65

AUAAAGCAAUAUUACGGGUU
self-splicing fitness (ln) (30 °C): -2.17 ± 0.09 | self-splicing fitness (ln) (37 °C): -1.17 ± 0.098

UAGGAGCAAUAUUACGGAGU
self-splicing fitness (ln) (37 °C): -2.56 ± 0.54

CCCGAGCAAUAUUACGCCCU
self-splicing fitness (ln) (30 °C): -2.66 ± 0.66

ACUGAGCAAUAUUACGGAAC
self-splicing fitness (ln) (30 °C): -3.67 ± 0.61

AUGGAGCAAUAUUACGGUGC
self-splicing fitness (ln) (37 °C): -3.03 ± 0.6

UAUGAGCAAUAUUACGUCCC
self-splicing fitness (ln) (37 °C): -2.67 ± 1.1

AGUGAGCAAUAUUACGUGGC
self-splicing fitness (ln) (30 °C): -0.0715 ± 0.8

UCGCAGCAAUAUUACGCUAU
self-splicing fitness (ln) (30 °C): -5.08 ± 0.36 | self-splicing fitness (ln) (37 °C): -3 ± 0.17

UUGAAGCAAUAUUACGGUCC
self-splicing fitness (ln) (30 °C): 0.526 ± 1.1

UUCAAGCAAUAUUACGGCCU
self-splicing fitness (ln) (30 °C): -2.42 ± 0.17 | self-splicing fitness (ln) (37 °C): -0.267 ± 0.15

GCCCAGCAAUAUUACGUUAC
self-splicing fitness (ln) (30 °C): -2.2 ± 0.083 | self-splicing fitness (ln) (37 °C): -0.962 ± 0.087

GGUCAGCAAUAUUACGACGA
self-splicing fitness (ln) (30 °C): -0.308 ± 0.072 | self-splicing fitness (ln) (37 °C): 0.501 ± 0.11

UAAUAGCAAUAUUACGCAUG
self-splicing fitness (ln) (30 °C): -1.4 ± 0.085 | self-splicing fitness (ln) (37 °C): 0.553 ± 0.13

CAGGAGCAAUAUUACGAAGC
self-splicing fitness (ln) (30 °C): -4.53 ± 0.59 | self-splicing fitness (ln) (37 °C): -1.94 ± 0.51

CAGCAGCAAUAUUACGAAGC
self-splicing fitness (ln) (37 °C): -2.54 ± 1.1

GGCGAGCAAUAUUACGACAG
self-splicing fitness (ln) (37 °C): -3.62 ± 0.72

CAACAGCAAUAUUACGAUGG
self-splicing fitness (ln) (30 °C): -0.426 ± 0.056 | self-splicing fitness (ln) (37 °C): 0.257 ± 0.075

UAUAAGCAAUAUUACGGAGC
self-splicing fitness (ln) (30 °C): -2.29 ± 0.64

CGGGAGCAAUAUUACGGUAC
self-splicing fitness (ln) (37 °C): -1.84 ± 0.64

CGUGAGCAAUAUUACGCGGG
self-splicing fitness (ln) (37 °C): -2.62 ± 0.62

CGCGAGCAAUAUUACGAUAA
self-splicing fitness (ln) (30 °C): -3.48 ± 0.56 | self-splicing fitness (ln) (37 °C): -3.08 ± 1

UUGCAGCAAUAUUACGCGGU
self-splicing fitness (ln) (37 °C): -3.24 ± 0.52

CAAGAGCAAUAUUACGCCCA
self-splicing fitness (ln) (30 °C): -3.06 ± 1.1

CUGGAGCAAUAUUACGAGGC
self-splicing fitness (ln) (30 °C): -2.02 ± 0.4 | self-splicing fitness (ln) (37 °C): -0.672 ± 0.47
